“And” between values parts separate entries of the source, which are not always exact repeats. Equal values may be shown once. Further values from the same series stand in other lists.
Test system: U2OS cells
Test: Cell growth assay (IncuCyte confluence over 72 h)
Type: cell-based
Parameters: key: % of well area covered by cells (confluence)
Procedure: Cell growth assay: Cell confluence (phase) from RPE1 (hTERT RPE-1, ATCC CLR_4000) or U2OS (ATCC, HTB-96) cell lines were monitored over time with the IncuCyte S3 (Sartiorius, Germany) in 384-well plates in 50 ul DMEM media, supplemented with 10% Fetal Bovine Serum (FBS) 1% penicillin/Streptomycin and incubated 24 h before treatment. Experiment was performed as described in Cano-Franco et al.. […] Cell confluence is represented as % of area covered by cells. Each data point represents the average ratio or confluence obtained from three individual wells of the plate.

O=C1CC(c2ccc(Cl)c(Cl)c2)CC(=O)C1=CNCCN1CCNCC1 (centres unmarked) [Cov-3]
U2OS cell growth (3 uM, time 12 h): 43.4861 and 28.0002 and 50.1693
U2OS cell growth (3 uM, time 14 h): 41.8109 and 27.9585 and 52.0009
U2OS cell growth (3 uM, time 16 h): 43.5379 and 29.5739 and 52.5069
U2OS cell growth (3 uM, time 18 h): 44.2717 and 29.9913 and 55.6453
U2OS cell growth (3 uM, time 20 h): 43.2143 and 29.626 and 45.3978
U2OS cell growth (3 uM, time 22 h): 46.2908 and 29.9803 and 53.5055
U2OS cell growth (3 uM, time 24 h): 76.2424 and 41.4883 and 68.4498
U2OS cell growth (3 uM, time 26 h): 55.6998 and 34.7805 and 68.2985
U2OS cell growth (3 uM, time 28 h): 55.5388 and 36.9224 and 64.6994
U2OS cell growth (3 uM, time 32 h): 69.2378 and 47.0317 and 71.4411
U2OS cell growth (3 uM, time 34 h): 61.744 and 42.7789 and 67.1815
U2OS cell growth (3 uM, time 36 h): 61.8219 and 38.4503 and 63.1718
U2OS cell growth (3 uM, time 38 h): 70.3858 and 43.0013 and 84.3862
U2OS cell growth (3 uM, time 40 h): 72.8486 and 43.5517 and 76.196
U2OS cell growth (3 uM, time 42 h): 82.1679 and 55.0255 and 88.8781
U2OS cell growth (3 uM, time 44 h): 76.7106 and 54.4554 and 91.0243
U2OS cell growth (3 uM, time 46 h): 81.5847 and 57.0507 and 69.1145
U2OS cell growth (3 uM, time 48 h): 83.5561 and 54.7923 and 84.406
U2OS cell growth (3 uM, time 50 h): 89.7212 and 59.6423 and 89.3225
U2OS cell growth (3 uM, time 52 h): 91.7723 and 55.4947 and 92.4092
U2OS cell growth (3 uM, time 54 h): 93.4434 and 71.6993 and 89.9728
U2OS cell growth (3 uM, time 56 h): 94.8237 and 74.6536 and 94.2151
U2OS cell growth (3 uM, time 58 h): 98.1184 and 79.6043 and 97.2742
U2OS cell growth (3 uM, time 60 h): 89.8455 and 68.3403 and 94.239
U2OS cell growth (3 uM, time 62 h): 94.3733 and 77.1807 and 97.049
U2OS cell growth (3 uM, time 64 h): 99.1151 and 85.0671 and 97.5391
U2OS cell growth (3 uM, time 66 h): 95.2648 and 74.4698 and 95.6838
U2OS cell growth (3 uM, time 68 h): 95.5706 and 80.5435 and 95.4047
U2OS cell growth (3 uM, time 70 h): 96.8702 and 88.3689 and 94.9067
U2OS cell growth (3 uM, time 72 h): 99.2485 and 89.3657 and 97.7831
U2OS cell growth (5 uM, time 12 h): 43.0941 and 33.7933 and 39.6335
U2OS cell growth (5 uM, time 14 h): 49.7739 and 36.24 and 41.4691
U2OS cell growth (5 uM, time 16 h): 49.5117 and 34.4551 and 40.733
U2OS cell growth (5 uM, time 18 h): 55.7143 and 41.9583 and 48.0215
U2OS cell growth (5 uM, time 20 h): 52.8126 and 41.5046 and 38.6948
U2OS cell growth (5 uM, time 22 h): 55.39 and 40.8728 and 44.4663
U2OS cell growth (5 uM, time 24 h): 57.1711 and 44.8381 and 45.0216
U2OS cell growth (5 uM, time 26 h): 60.3037 and 51.9445 and 50.3514
U2OS cell growth (5 uM, time 28 h): 63.5144 and 51.0518 and 55.1328
U2OS cell growth (5 uM, time 30 h): 58.3226 and 39.7111 and 52.6152
U2OS cell growth (5 uM, time 32 h): 70.1262 and 58.264 and 50.3886
U2OS cell growth (5 uM, time 34 h): 73.8763 and 53.5707 and 56.4645
U2OS cell growth (5 uM, time 36 h): 74.3646 and 60.2801 and 61.0466
U2OS cell growth (5 uM, time 38 h): 68.9052 and 58.1877 and 57.3166
U2OS cell growth (5 uM, time 40 h): 77.5519 and 58.3266 and 66.8908
U2OS cell growth (5 uM, time 42 h): 86.4934 and 63.8523 and 77.8514
U2OS cell growth (5 uM, time 44 h): 84.974 and 76.459 and 70.9389
U2OS cell growth (5 uM, time 46 h): 86.2469 and 66.2105 and 58.0312
U2OS cell growth (5 uM, time 48 h): 88.0137 and 75.4588 and 69.5554
U2OS cell growth (5 uM, time 50 h): 92.5351 and 75.0652 and 78.6768
U2OS cell growth (5 uM, time 52 h): 94.6117 and 77.6463 and 86.2776
U2OS cell growth (5 uM, time 54 h): 95.8052 and 84.5624 and 82.7041
U2OS cell growth (5 uM, time 56 h): 96.2544 and 81.5825 and 91.4643
U2OS cell growth (5 uM, time 58 h): 94.7421 and 84.6699 and 92.373
U2OS cell growth (5 uM, time 60 h): 97.6618 and 85.0112 and 93.6333
U2OS cell growth (5 uM, time 62 h): 98.2696 and 89.8795 and 94.2472
U2OS cell growth (5 uM, time 64 h): 98.9956 and 88.1889 and 92.6674
U2OS cell growth (5 uM, time 66 h): 99.029 and 85.213 and 94.6773
U2OS cell growth (5 uM, time 68 h): 98.1356 and 87.9876 and 93.5547
U2OS cell growth (5 uM, time 70 h): 98.3204 and 85.9772 and 93.6533
U2OS cell growth (5 uM, time 72 h): 99.5427 and 93.1045 and 97.9257
U2OS cell growth (10 uM, time 12 h): 38.3168 and 26.3567 and 27.4967
U2OS cell growth (10 uM, time 14 h): 36.6784 and 26.6401 and 28.1053
U2OS cell growth (10 uM, time 16 h): 37.0978 and 24.6529 and 26.0824
U2OS cell growth (10 uM, time 18 h): 42.1186 and 26.1778 and 28.2156
U2OS cell growth (10 uM, time 20 h): 45.2476 and 31.1256 and 29.0633
U2OS cell growth (10 uM, time 22 h): 41.5919 and 30.3643 and 30.2681
U2OS cell growth (10 uM, time 24 h): 47.291 and 32.7861 and 34.4437
U2OS cell growth (10 uM, time 26 h): 49.4244 and 36.947 and 35.1114
U2OS cell growth (10 uM, time 28 h): 55.4156 and 36.4505 and 38.1742
U2OS cell growth (10 uM, time 30 h): 56.3364 and 34.3259 and 28.2098
U2OS cell growth (10 uM, time 32 h): 53.3136 and 36.327 and 31.8181
U2OS cell growth (10 uM, time 34 h): 60.1633 and 44.2443 and 44.1728
U2OS cell growth (10 uM, time 36 h): 55.4262 and 40.0225 and 38.3053
U2OS cell growth (10 uM, time 38 h): 59.1193 and 43.3343 and 43.6742
U2OS cell growth (10 uM, time 40 h): 59.893 and 44.118 and 44.7492
U2OS cell growth (10 uM, time 42 h): 65.6792 and 49.3826 and 50.1919
U2OS cell growth (10 uM, time 44 h): 68.0916 and 52.8292 and 53.5612
U2OS cell growth (10 uM, time 46 h): 70.7293 and 52.8189 and 55.9308
U2OS cell growth (10 uM, time 48 h): 71.263 and 53.1055 and 48.1643
U2OS cell growth (10 uM, time 50 h): 75.1418 and 58.8282 and 59.9723
U2OS cell growth (10 uM, time 52 h): 80.428 and 60.3568 and 64.4991
U2OS cell growth (10 uM, time 54 h): 81.4954 and 65.4774 and 66.0854
U2OS cell growth (10 uM, time 56 h): 84.059 and 65.1759 and 75.7737
U2OS cell growth (10 uM, time 58 h): 88.062 and 70.6137 and 76.7368
U2OS cell growth (10 uM, time 60 h): 90.7126 and 73.4389 and 79.4368
U2OS cell growth (10 uM, time 62 h): 89.1196 and 74.4968 and 77.2172
U2OS cell growth (10 uM, time 64 h): 92.1829 and 77.2315 and 84.3033
U2OS cell growth (10 uM, time 66 h): 92.6451 and 74.3186 and 75.0777
U2OS cell growth (10 uM, time 68 h): 96.4851 and 81.8485 and 84.0083
U2OS cell growth (10 uM, time 70 h): 95.3716 and 81.6625 and 86.4202
U2OS cell growth (10 uM, time 72 h): 98.251 and 87.2296 and 89.9767
